{"source": "patent US20250304526A1", "about": "“HIGH AND MULTIPLE REDOX POTENTIAL, STABLE, AND SOLUBLE BIS-DIARYLAMINE DERIVATIVES AND USES THEREOF” (University of Kentucky Research Foundation, priority 2024, published 2025)", "experiment": "Symmetric flow cell cycling", "settings": "for Retention of first cycle capacity in flow cell: 10 mM 3 + PF6 salt in 0.1 M TBAPF6/CH3CN, 5 mA cm^−2", "experimental": "A custom made, small volume custom flow cell with interdigitated flow fields was used in this work as used previously in refs. The 2.55 cm^2 flow cell consisted of two compartments separated by a 175 m thick Daramic membrane. 10 mL of equimolar solution (total concentration of 10 mM) of compound 3 and its PF6 salt was used in each reservoir (Savillex) initially. The electrolyte was circulated at 10 mL min^−1 using peristaltic pump (Masterflex L/S Series) equipped with norprene tubing (Masterflex). Capacity retention study was performed and data was collected using a VSP potentiostat (BioLogic). The flow cell was then cycled for 200 cycles at a current density of 5 mA cm^−2 with potential cut-offs of ±0.45 V. Electrochemical impedance spectroscopy (EIS) was collected using the same instrument before and after cycling at the open-circuit potential with a sinusoidal amplitude of 10 mV between 200 kHz and 10 mHz (5 points per decade).\nBased on the chemical and electrochemical stability results shown above and the oxidation potentials of all molecules, compound 3 is a good initial candidate for implementation in a RFB. For the proof of concept, a symmetric flow cell was used to study the cycling stability of our newly developed catholyte molecule in its neutral and charged form. An equimolar mixture of compound 3 and its corresponding hexafluorophosphate salt (FIG. 10A) was initially used in both the compartments of the flow cell. […] The ohmic contribution (5.5 Ωcm^2) estimated from the high frequency intercept of the Nyquist plot is consistent with other non-aqueous studies using Daramic separator.\nSince compound 3 is soluble to −13 mM, we conducted cycling studies at 10 mM (in 0.1 M TBAPF6/CH3CN) and used a current density of 5 mA cm^−2. The cell accessed 60% of the theoretical capacity (2.68 mAh) in the first cycle. The lower accessed capacity may be due to mass transport limitations and can be optimized using lower current density. Though the accessed capacity was lower, the capacity remained stable for 200 cycles (FIG. 10B). […]"}
{"smiles": "Cc1ccc(C(F)(F)F)cc1N(c1ccc(N(c2cc(C(F)(F)F)ccc2C)c2cc(C(F)(F)F)ccc2C)cc1)c1cc(C(F)(F)F)ccc1C", "note": "[3^+⋅]", "values": [{"measurement": "Retention of first cycle capacity in flow cell", "setting": "after 100 cycles", "value": 97, "unit": "%"}, {"measurement": "Retention of first cycle capacity in flow cell", "setting": "after 200 cycles", "value": 95, "unit": "%"}, {"measurement": "Average coulombic efficiency in flow cell", "setting": "over 200 cycles", "value": 97, "unit": "%"}]}
